Measurements from PubChem BioAssay AID330 (DTP/NCI, 2004).
The list shows only some results of the screen, not a fair sample: it gathers tests that were run many times, whatever their T/C, doses with no T/C, and many T/C values between a quarter and a half above the control. Other doses and runs of a compound stand elsewhere. T/C: endpoint of the treated group in % of that of the vehicle group. Some doses have a count of surviving animals in place of a T/C: the source files T/C as zero there, which appears to mark a toxic dose or a test without result, not a measured value. Some survivor counts are full or nearly so, which does not show that the dose was tolerated: the source hardly ever lists a survival T/C far under the control, and the zero likely stands for such cases as well. Counts of survivors are from the toxicity check (mostly the fifth day) where no day follows; animals may have died later. Schedule codes are those of the source, read here as Q, the interval in days (D) or hours (H), X, the number of doses. Where survival is the endpoint, the PubChem record calls one and a half times the control and up active, and a quarter to a half above the control has no call in these data; cut-offs in other NCI protocols can differ. Some T/C values carry the count of animals alive at the toxicity check (mostly the fifth day); where none is given, no animal had died by that day. Some entries were tested several times; the results are listed from low to high. Counts like (3×) stand for listed records that agree.

System: P388 leukemia ip, CD2F1 mice, survival T/C
Test: NCI In Vivo Anticancer Drug Screen. Data for tumor model P388 Leukemia (intraperitoneal) in CD2F1 (CDF1) mice
Settings: T/C endpoint: median survival time, higher T/C = longer survival
[1] = dose: 240.0 mg/kg/injection, schedule: Q01DX005 (ip), vehicle: Klucel (hydroxypropylcellulose) (HPC)
[2] = dose: 100.0 mg/kg/injection, schedule: Q01DX009 (ip), vehicle: saline with Tween-80
[3] = dose: 25.0 mg/kg/injection, schedule: Q04DX003 (ip), vehicle: saline with Tween-80
[4] = dose: 200.0 mg/kg/injection, schedule: Q01DX009 (ip), vehicle: saline with Tween-80
[5] = dose: 240.0 mg/kg/injection, schedule: Q01DX005 (ip), vehicle: saline
[6] = dose: 200.0 mg/kg/injection, schedule: Q01DX005 (ip), vehicle: saline with Tween-80
[7] = dose: 25.0 mg/kg/injection, schedule: Q01DX009 (ip), vehicle: water
[8] = dose: 50.0 mg/kg/injection, schedule: Q01DX009 (ip), vehicle: water
[9] = dose: 400.0 mg/kg/injection, schedule: Q01DX009 (ip), vehicle: water

Structure (SMILES): CC(=O)N(OC1OC(CO)C(O)C(O)C1O)c1ccc(Oc2ccc(Cl)cc2)cc1 (stereo not drawn)
- survivor count [1]: 3 of 6

Structure (SMILES): CCCC(O)(CCC)/C(C)=N/O
- survivor count [2]: 6 of 6

Structure (SMILES): CCCCCCCCCCCCCCCc1ccc(C(=O)C[n+]2ccccc2)cc1
- T/C (dose: 12.5 mg/kg/injection, schedule: Q01DX009 (ip), vehicle: saline with Tween-80): 133 % of control
- survivor count (dose: 25.0 mg/kg/injection, schedule: Q01DX009 (ip), vehicle: saline with Tween-80): 3 of 6
- T/C [3]: 136 % of control
- T/C (dose: 37.5 mg/kg/injection, schedule: Q04DX003 (ip), vehicle: saline with Tween-80): 125 % of control [5 of 6 alive]
- survivor count (dose: 50.0 mg/kg/injection, schedule: Q01DX009 (ip), vehicle: saline with Tween-80): 0 of 6

Structure (SMILES): O=C(O)c1oc2ccccc2c1C=C(c1ccccc1)c1ccccc1
- survivor count [4]: 1 of 6

Structure (SMILES): N#CN=[N+]([O-])c1ccccc1[N+](=O)[O-]
- survivor count (dose: 25.0 mg/kg/injection, schedule: Q04DX003 (ip), vehicle: Klucel (hydroxypropylcellulose) (HPC)): 0 of 6
- survivor count (dose: 50.0 mg/kg/injection, schedule: Q04DX003 (ip), vehicle: Klucel (hydroxypropylcellulose) (HPC)): 0 of 6
- survivor count (dose: 100.0 mg/kg/injection, schedule: Q04DX003 (ip), vehicle: Klucel (hydroxypropylcellulose) (HPC)): 0 of 6
- survivor count (dose: 200.0 mg/kg/injection, schedule: Q04DX003 (ip), vehicle: Klucel (hydroxypropylcellulose) (HPC)): 0 of 6

Structure (SMILES): CC(C)c1nccn1Cc1ccccc1
- survivor count (dose: 120.0 mg/kg/injection, schedule: Q01DX005 (ip), vehicle: saline): 0 of 6
- survivor count [5]: 0 of 6

Structure (SMILES): C=C1C(=O)OC2/C=C(/C)CC/C=C(\C(=O)O)CC/C=C(\C)CCC12 (stereo not drawn)
- survivor count (dose: 400.0 mg/kg/injection, schedule: Q04DX003 (ip), vehicle: saline with Tween-80): 0 of 6

Structure (SMILES): CCCCN(CCCC)CC(O)c1ccc(F)c2ccccc12 (stereo not drawn)
- survivor count [6]: 0 of 5

Structure (SMILES): CCCCCCC(=O)CC(SCC(NC(C)=O)C(=O)O)c1ccccc1Cl (stereo not drawn)
- survivor count [5]: 1 of 6

Structure (SMILES): COC(=O)c1nc(N)nc(C(=O)OC)c1C(=O)c1ccc(Cl)cc1
- survivor count [1]: 2 of 6

Structure (SMILES): CCCCN(CC)CCCCCCCCCCN1CCCc2cc(OC)ccc21
- survivor count (dose: 50.0 mg/kg/injection, schedule: Q01DX005 (ip), vehicle: saline with Tween-80): 3 of 5
- survivor count [6]: 0 of 5

Structure (SMILES): O=C1NC(=O)C2(CCCc3ccc(N(CCCl)CCCl)cc32)N1 (stereo not drawn)
- T/C [3]: 145 % of control
- survivor count [2]: 6 of 6
- survivor count [4]: 4 of 6
- T/C (dose: 200.0 mg/kg/injection, schedule: Q04DX003 (ip), vehicle: saline with Tween-80): 127 % of control [4 of 6 alive]
- survivor count (dose: 300.0 mg/kg/injection, schedule: Q04DX003 (ip), vehicle: saline with Tween-80): 4 of 6

Structure (SMILES): O=C1c2ccccc2C(=O)c2c1cn1c2Cc2ccccc2C1
- survivor count (dose: 180.0 mg/kg/injection, schedule: Q01DX005 (ip), vehicle: Klucel (hydroxypropylcellulose) (HPC)): 1 of 6
- survivor count [1]: 0 of 6

Structure (SMILES): CN(C)/C=N/c1c(C#N)c(-c2ccccc2)c(-c2ccccc2)n1-c1ccccc1
- survivor count [2]: 6 of 6

Structure (SMILES): CCN(CC)CCN1C(=O)c2cccc3cc(N)cc(c23)C1=O
- T/C (dose: 3.2 mg/kg/injection, schedule: Q01DX009 (ip), vehicle: saline with Tween-80): 127 % of control
- survivor count [2]: 5 of 6

Structure (SMILES): CCCCCCCC/C=C\CCCCCCCC(=O)NCCCN(C)C
- survivor count (dose: 50.0 mg/kg/injection, schedule: Q01DX009 (ip), vehicle: saline): 0 of 6
- survivor count [2]: 1 of 6
- survivor count [4]: 0 of 6

Structure (SMILES): c1ccc2c(N3CCCCC3)ncnc2c1
- survivor count (dose: 200.0 mg/kg/injection, schedule: Q01DX005 (ip), vehicle: saline): 0 of 5

Structure (SMILES): CCCCCCCCC[N+]1([O-])CCCCCC1
- survivor count (dose: 100.0 mg/kg/injection, schedule: Q01DX009 (ip), vehicle: saline): 0 of 6
- survivor count (dose: 200.0 mg/kg/injection, schedule: Q01DX009 (ip), vehicle: saline): 0 of 6

Structure (SMILES): COc1ccc(/C=C/C(=O)C(C)(C)CN(C)CCN(C)C)cc1
- survivor count (dose: 240.0 mg/kg/injection, schedule: Q01DX005 (ip), vehicle: saline with Tween-80): 0 of 6

Structure (SMILES): CC(C)CC(NC(=O)OCc1ccccc1)C(=O)O (stereo not drawn)
- survivor count [6]: 0 of 6

Structure (SMILES): CC1(C)CC(=O)C=C(OS(=O)(=O)C(F)(F)F)C1
- survivor count (dose: 100.0 mg/kg/injection, schedule: Q01DX009 (ip), vehicle: distilled water + Tween-80): 4 of 6
- survivor count (dose: 200.0 mg/kg/injection, schedule: Q01DX009 (ip), vehicle: distilled water + Tween-80): 0 of 6

Structure (SMILES): CCc1nc(N)nc(N)c1-c1ccc(NCCN)c(N)c1
- survivor count (dose: 100.0 mg/kg/injection, schedule: Q01DX005 (ip), vehicle: Klucel (hydroxypropylcellulose) (HPC)): 2 of 6
- survivor count (dose: 200.0 mg/kg/injection, schedule: Q01DX005 (ip), vehicle: Klucel (hydroxypropylcellulose) (HPC)): 0 of 6

Structure (SMILES): Cc1cnc2cc(-c3ccccc3)[nH]c2n1
- survivor count (dose: 60.0 mg/kg/injection, schedule: Q01DX005 (ip), vehicle: Klucel (hydroxypropylcellulose) (HPC)): 6 of 6
- survivor count (dose: 120.0 mg/kg/injection, schedule: Q01DX005 (ip), vehicle: Klucel (hydroxypropylcellulose) (HPC)): 6 of 6
- survivor count [1]: 6 of 6

Structure (SMILES): O=C(NC(C(=O)O)C1CC(Cl)=NO1)OCC1c2ccccc2-c2ccccc21 (stereo not drawn)
- T/C (dose: 50.0 mg/kg/injection, schedule: Q04DX003 (ip), vehicle: other): 126 and 138 % of control
- T/C (dose: 100.0 mg/kg/injection, schedule: Q04DX003 (ip), vehicle: other): 129 % of control
- T/C (dose: 200.0 mg/kg/injection, schedule: Q04DX003 (ip), vehicle: other): 129 % of control

Structure (SMILES): c1ccc(-c2csc(=[N+]3CCCCC3)s2)cc1
- T/C (dose: 12.5 mg/kg/injection, schedule: Q01DX009 (ip), vehicle: water): 121 (2×), 124 [5 of 6 alive], 133 % of control [5 of 6 alive]
- T/C [7]: 128 [5 of 6 alive], 133, 135, 136 % of control
- survivor count [8]: 0 of 6
- survivor count (dose: 100.0 mg/kg/injection, schedule: Q01DX009 (ip), vehicle: water): 0 of 6
- survivor count (dose: 200.0 mg/kg/injection, schedule: Q01DX009 (ip), vehicle: water): 0 of 6
- survivor count [9]: 0 of 6

Structure (SMILES): Cc1cc(C2c3ccccc3-c3ccccc32)cc(C)c1O
- survivor count (dose: 15.0 mg/kg/injection, schedule: Q01DX005 (ip), vehicle: saline with Tween-80): 6 of 6
- survivor count (dose: 30.0 mg/kg/injection, schedule: Q01DX005 (ip), vehicle: saline with Tween-80): 6 of 6
- survivor count (dose: 60.0 mg/kg/injection, schedule: Q01DX005 (ip), vehicle: saline with Tween-80): 6 of 6
- survivor count (dose: 120.0 mg/kg/injection, schedule: Q01DX005 (ip), vehicle: saline with Tween-80): 6 of 6

Structure (SMILES): NC(N)=NN=c1/c(=N\N=C(N)N)c2cc3ccccc3cc2/c1=N/N=C(N)N
- survivor count (dose: 50.0 mg/kg/injection, schedule: Q01DX001 (ip), vehicle: saline): 1 of 6
- survivor count (dose: 100.0 mg/kg/injection, schedule: Q01DX001 (ip), vehicle: saline): 0 of 6

Structure (SMILES): Nc1nc(-c2cccc3ccccc23)cc2ccccc12
- T/C [7]: 130 % of control
- T/C [8]: 127 % of control
- survivor count [9]: 5 of 6
